Measured values taken from paper PMC4965137.

The sequences below were run against MBP (UniProt P0AEX9) (assay: EMSA). Conditions: 1 pmol protein; 25 mM HEPES-KOH pH 7.5, 75 mM KCl, 2.5 mM DTT, 10% glycerol, 1.25 ng poly-dIdC; 20 fmol probe, 0.5-2 pmol protein; 10 min room temperature then 20 min on ice with probe; recombinant protein; label: 32P 5' end.

Binding result, no binding:
GGCGAGTTTTAGATATTTTCACCCGCTCC (double strand) [ZmTOC1a promoter probe]

Each sequence was assayed against rZmCCA1b (Zea mays B73) (UniProt K7U156) (assay: EMSA). Conditions: 25 mM HEPES-KOH pH 7.5, 75 mM KCl, 2.5 mM DTT, 10% glycerol, 1.25 ng poly-dIdC; 20 fmol probe, 0.5-2 pmol protein; 10 min room temperature then 20 min on ice with probe; recombinant protein; protein details: MBP (pMAL-C2); label: 32P 5' ….

Binding result, no binding:
GGCGAGTTTTCCCCGCGATCACCCGCTCC (double strand) [ZmTOC1a M], GCATCGCGGAAAAAAGAGTTTTCTCGCC (double strand) [gi1 M], GTCCGAGGCTAGGCTCGGGTGAAGCGTG (double strand) [gi1 N], CTCTTTAAAAAAAAAGAGTCATTTAAGG (double strand) [ZmPRR59 M], GGGTCAGGCCGTCACGGGTCCAATGGAC (double strand) [ZmPRR59 N], GACCCCACCTAGCCGGTCTGTGTCTGTCC (double strand) [ZmTOC1a N]

No signal at the amounts used counts as a negative. At least one verdict was read from the data and is not stated in words by the source.
